Experimental data reported in article PMC5177772.
No constants are given. Whether binding was seen depends on the method and setting. Binding seen in cells or lysates may run through a third protein. Some results given as binding are weak or reduced against the parent protein; the word gives no strength.

Protein sequences, listed by entry. Tags and fused reporters are not part of them. Lines headed by an entry give the natural chain unless they say otherwise; changes in a name come on top. Residues count along the entry.
UniProt P10275: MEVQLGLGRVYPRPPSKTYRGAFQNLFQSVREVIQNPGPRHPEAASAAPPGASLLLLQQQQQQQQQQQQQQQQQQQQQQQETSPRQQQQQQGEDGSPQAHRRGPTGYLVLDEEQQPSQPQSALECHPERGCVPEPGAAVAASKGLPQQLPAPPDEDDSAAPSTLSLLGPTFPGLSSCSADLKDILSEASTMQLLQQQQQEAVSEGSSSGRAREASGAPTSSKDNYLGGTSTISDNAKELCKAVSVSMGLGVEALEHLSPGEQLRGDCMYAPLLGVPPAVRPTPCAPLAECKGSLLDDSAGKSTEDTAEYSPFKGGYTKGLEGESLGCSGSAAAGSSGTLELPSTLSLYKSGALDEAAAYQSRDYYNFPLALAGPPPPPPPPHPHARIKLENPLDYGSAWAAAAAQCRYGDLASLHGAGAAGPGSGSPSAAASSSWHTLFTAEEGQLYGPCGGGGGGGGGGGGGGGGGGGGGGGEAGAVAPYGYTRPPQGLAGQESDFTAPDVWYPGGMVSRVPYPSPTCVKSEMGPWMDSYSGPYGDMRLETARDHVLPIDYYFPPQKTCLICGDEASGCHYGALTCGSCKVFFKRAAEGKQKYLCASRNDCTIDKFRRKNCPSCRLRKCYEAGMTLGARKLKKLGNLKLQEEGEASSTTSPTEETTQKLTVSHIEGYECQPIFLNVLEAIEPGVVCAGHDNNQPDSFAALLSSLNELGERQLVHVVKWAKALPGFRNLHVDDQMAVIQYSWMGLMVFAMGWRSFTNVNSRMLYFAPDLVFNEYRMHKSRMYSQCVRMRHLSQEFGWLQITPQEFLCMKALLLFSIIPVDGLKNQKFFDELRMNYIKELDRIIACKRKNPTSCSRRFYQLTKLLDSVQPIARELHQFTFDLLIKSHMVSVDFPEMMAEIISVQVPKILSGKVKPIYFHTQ
UniProt Q9UPP1, residues 37-1060: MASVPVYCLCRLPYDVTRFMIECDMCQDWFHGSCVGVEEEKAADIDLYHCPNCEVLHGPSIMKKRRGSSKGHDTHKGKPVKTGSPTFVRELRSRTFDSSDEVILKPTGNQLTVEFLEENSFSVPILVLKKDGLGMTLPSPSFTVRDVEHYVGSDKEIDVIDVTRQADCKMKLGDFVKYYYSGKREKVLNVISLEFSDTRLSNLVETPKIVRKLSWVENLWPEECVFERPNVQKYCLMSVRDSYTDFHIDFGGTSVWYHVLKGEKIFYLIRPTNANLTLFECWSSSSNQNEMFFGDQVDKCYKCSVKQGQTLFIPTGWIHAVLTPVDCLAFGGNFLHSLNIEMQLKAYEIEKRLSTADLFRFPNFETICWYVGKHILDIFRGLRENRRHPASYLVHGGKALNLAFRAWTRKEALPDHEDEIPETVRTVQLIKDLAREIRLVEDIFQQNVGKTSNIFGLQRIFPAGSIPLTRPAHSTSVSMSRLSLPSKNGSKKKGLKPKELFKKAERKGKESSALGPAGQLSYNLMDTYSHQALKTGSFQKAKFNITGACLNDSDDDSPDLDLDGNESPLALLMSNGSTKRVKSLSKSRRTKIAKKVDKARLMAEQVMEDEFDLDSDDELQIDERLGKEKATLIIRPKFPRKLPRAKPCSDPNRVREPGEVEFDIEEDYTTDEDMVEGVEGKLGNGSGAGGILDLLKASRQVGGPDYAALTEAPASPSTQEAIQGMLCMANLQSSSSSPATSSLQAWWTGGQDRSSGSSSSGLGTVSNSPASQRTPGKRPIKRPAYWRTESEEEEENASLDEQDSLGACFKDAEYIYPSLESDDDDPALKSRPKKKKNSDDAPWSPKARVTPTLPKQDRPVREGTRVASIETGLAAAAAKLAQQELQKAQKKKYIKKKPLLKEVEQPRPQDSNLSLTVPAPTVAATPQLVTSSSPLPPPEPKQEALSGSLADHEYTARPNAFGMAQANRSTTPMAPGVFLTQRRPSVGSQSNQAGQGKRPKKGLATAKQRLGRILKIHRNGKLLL

Legend:
[1] = target: GFP-tagged androgen receptor (AR) (UniProt P10275); experiment: co-IP; Flag-PHF8 (wild type or H247A) and GFP-AR co-expressed in 293FT/HEK293T cells, with or without 10 nM DHT; lysis in RIPA buffer; immunoprecipitation with anti-Flag or anti-GFP antibody overnight at 4 °C, protein A/G-Sepharose, PBS washes; western blot
[2] = target: Flag-tagged PHF8 (plant homeo domain finger protein 8), wild type (UniProt Q9UPP1); experiment: as above

Row | binding [1] | binding [2] | Substance
1 | binds |  | Flag-tagged PHF8 (plant homeo domain finger protein 8), wild type (from UniProt Q9UPP1-2 1-1024)
2 |  | binds | GFP-tagged androgen receptor (AR) (from UniProt P10275 1-920)
